The campaign covered roughly 53,000 sequences. About 3,700 (7%) were called active.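 How the source made its calls: active means gene knockdowns whose robust z-score for IL-1 alpha signal is at least 2 or at most -2, so actives lie on both sides; inactive means the rest.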 This is one part of the list.

Our source for the z-score values is PubChem BioAssay AID1508600 (Functional Genomics Laboratory (NCATS/FGL), 2020).

The assay is described as follows: Components of the Cytosolic LPS Sensing Pathway: Gene Identification via Genome-wide siRNA Screen.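 Further: robust z of the log signal after scaling to non-targeting control siRNA wells of the plate.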 The following applies: RAW264.7 macrophages, IL-1a HTRF, actives lie on both sides, screened at 100 nM (by protocol), cells primed 5 h with Pam3CSK4 first. The essentials: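 Supernatant IL-1a by HTRF from RAW264.7 cells primed with Pam3CSK4 (5 hours) and transfected with LipidA (24 hour) after 48h siRNA knockdown at 100 nM; cell viability checked with CellTiter-Glo.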
For orientation: In TR-FRET formats the signal depends on donor and acceptor labels being close together.
As for GGCAAAGAAAACAUCAGAGTT against Lap3, the z-score is inactive: 0.296. With CCUCUCUAGGCUAUAACUATT against Arhgap23, the z-score was inactive: 0.521. Turning to GGCUUCUUUAUGUUUCCUUTT against Usp48, the z-score is inactive: -1.46.

Consider CCUCAAUUUCGAAGACCCUTT against Asb6, for which the z-score was inactive: 1.84. Turning to GGCUGAUGUGAUGAUUGUATT against Ndufs7, the z-score is active: 2.3. With GGAGAUCCACCUUUUCAAATT against Fap, the z-score is inactive: -0.0456. As to GGCAAAUCCUCAAAGAUGUTT against Abcg5, the z-score was inactive: -0.434. The value for GGGCAACAGCUUCCAUAAATT against Csrp1 was inactive: 1.09. As for GGAUGUGAUCCUCUGUUGCTT against Pcif1, the z-score is inactive: -0.843. The value for CCUAUGAGUCUUACGUGAATT against Cyp4x1 was inactive: 0.693. Turning to GGUUUUUUUUUCCAGUCCATT against Stam2, the z-score was inactive: -1.05. Turning to GACCAUCUCCUUUACGGGCTT against Olfr71, the z-score was inactive: 0.133. Take GGCUCUUAACUAUGAAAUATT against Apcs: the z-score is inactive: -0.476. Consider GGUAAGCAUGGAAAGGCUGTT against Prdm15, for which the z-score is inactive: -0.0134. CGACUGUGACAAAAACAUGTT against Ly6m: the z-score is inactive: 0.401. With GGCUCUGUAUCGGAAGGCUTT against Zc3h7a, the z-score is inactive: 0.817. Regarding GGUGUGUAUGGUGCUAGGATT against Olfr1507, the z-score was active: -2.43. For GGCAGCUGAUCAGAAAUCATT against Gabrg3, the z-score is inactive: -1.13. GCUCUCGAUCAGGAUGUAATT against Vsx1: the z-score is inactive: 0.153. Regarding GCAUACUCACGUCCACUCATT against Gfi1b, the z-score was inactive: -1.52. Take GGUAUACUAACUUUUAAGGTT against Fmo1: the z-score was inactive: -0.228. Consider GGCCAUGAACUGGCAAAGCTT against Erbin, for which the z-score was inactive: 0.472. The value for GGAUUUUAAUGGGCUAUGCTT against Zfp114 was inactive: 0.805. Take GGAAAAUGGAAUUUGAAGCTT against Ccnb2: the z-score is inactive: -0.0768. To UCUGUGGACCAGGAUUUGGTT against Pcsk1n belongs active: -2.8. The value for GGCCCAGUUGUUAAACUCUTT against Pianp was inactive: 0.464; that for GGAAUAUGUGUGGACUAGATT against Tor3a was inactive: -0.265; that for GGUCUGGAGACUUUCAGUCTT against Hexa was inactive: 0.521.

For the sequence GGUCAUUGCAUCUGACAAGTT against Pcdha2, the z-score was inactive: 0.109. Regarding CCUUUAGAGGAAUUCACUUTT against Npas2, the z-score is inactive: -0.576. To GGAUGAGAUCAACUUCCUCTT against Krt7 belongs inactive: -0.6. For the sequence GCUAGGUGUUUGAAGCCUCTT against Mixl1, the z-score was inactive: -0.834.

With GGAGAAAUAAGUGCAGGUGTT against Rhox2a, the z-score is inactive: -0.622. With GGAAACUGGUCCCUAUCAATT against Sp2, the z-score was inactive: -0.27. As to GGCUCAGACCUGGAUACAUTT against Oas1e, the z-score is active: -2.31.

As to GCAUCAACAUCCAUCUAUCTT against Kctd8, the z-score was inactive: 0.713. To CCAUGCUCUAUCAAUGUUCTT against Sprr3 belongs inactive: -0.691; to CCUCCAUUGAUACUCAAGUTT against Pycr1, inactive: 0.0219; to GGGCAAGUACUUCUCUAGCTT against Cdsn, inactive: 0.636. For GUUCACACACGAAUUUGACTT against H2-Oa, the z-score was active: -2.32. Take GGAGCUCUGGCACUUUGUCTT against Gramd1b: the z-score was inactive: 0.37. Take GCCUCGAAUGCUAGACUUCTT against Faf1: the z-score is inactive: -1.46. The value for GGGUCUCUCAAAGAUCCUGTT against Zfp768 was inactive: 0.75; that for GGAGCAUAUACAACUCAGCTT against Dis3l was inactive: 0.1. As for GCCCAGUACUCCGCUUACATT against Bhlhe23, the z-score was active: -2.03. Regarding GGACUUGCUAGAUACGAUCTT against Edaradd, the z-score is inactive: 0.175.

In the case of GGGUUAGCCAGAGCUCUAATT against N4bp2l1, the z-score was active: 3.03. GAGUGAUCUUCCACUUACGTT against Cracr2b: the z-score is inactive: 1.82. On to GCGAUUGAUGAAUUUCGACTT against Atp9b, for which the z-score was inactive: 0.616. Regarding GGAGAGCAGACAAAAAUGATT against Necab1, the z-score was inactive: -0.675. For “GGUAAUGAAUGGACAAUGATT against 9130401M01Rik”, the z-score was inactive: -0.478.

GGAGCAUUCACCUGUCUGUTT against Gdf9: the z-score was inactive: -0.145. To GCAGGUUCAUACGAUCCAGTT against Plekha3 belongs inactive: -0.7. In the case of CGACCUGUGGGUUAACCCATT against Tspyl2, the z-score is inactive: -0.522.

With GGUGGUGAACUGUUUGACCTT against Pnck, the z-score is inactive: -1.58. Turning to GGCAGGCAGAAGGCUUUUUTT against Olfr228, the z-score was inactive: 1.07. With GGAGUUACAUGGCUCUUGATT against Ptgdr2, the z-score is inactive: -0.459. With GGAAAGCAUGCAGUUCAUATT against Cyp4f13, the z-score was inactive: 0.338.

As to CGAGGAUACGUUUGCAUCUTT against Cipc, the z-score was inactive: -0.676. Turning to GCUGCAUCAAAUCUUCCAUTT against Prl8a6, the z-score was inactive: 0.771. Take GGCAAUGGCUUCGUAGUAUTT against Ltb4r2: the z-score is inactive: -0.000654. For the sequence CCAGUAUUAUCUAACAUCGTT against Pdk4, the z-score was inactive: -0.626. The value for GGACAAAAGACAAUCGAGATT against Parp2 was inactive: -0.273. The value for GCCAUGGAGCUCAUUUGGATT against Nup85 was inactive: -0.225; that for GGAAGAAUGGAGCAGAGCUTT against Igdcc3 was inactive: -0.858; that for GGAAGAGGAGUCCUACUCUTT against Pla2g12b was inactive: -1.14. Turning to GGUCUCUUGACUUCAGUACTT against Shc3, the z-score was inactive: 0.76. To GGAUGAAGAACUCAGAGUGTT against Slc66a2 belongs inactive: -1.24; to GGAAAGAAAGGGAACAAAATT against Ccdc34, inactive: 0.869; to GCACUUAAUACUUUAUGUGTT against Iapp, inactive: -1.27. In the case of GGAAACCUGAUUAUCAUCATT against Olfr791, the z-score was inactive: -0.337. For the sequence GGCCUAAUUUCCUCUAAUATT against Padi1, the z-score is inactive: 0.452. To GGAUAGAGAUUCCAAACAUTT against Rxfp2 belongs inactive: -0.969.

Take CCACAGUACGCUGAAAUCCTT against Morf4l1: the z-score was active: -2.27. As for GCAUUGGAACCAUGUGCUGTT against Prss46, the z-score was inactive: -1.59. As for GGCAUACAAGAAGUGUCUATT against Snta1, the z-score is inactive: -1.19. In the case of GGAACUUAACUUACACAUGTT against Nr2f1, the z-score is inactive: 0.616. In the case of CGAUCGAUGUUAAAUGUAGTT against Nppa, the z-score was inactive: -0.805. As to GGUUCCUAUACCCAACGGUTT against Mrgpra7, the z-score is inactive: -1.07. As for GGUGCUAGUGGUGACCAUGTT against Pign, the z-score was active: 2.2.

As to GCAAAAGAGUUGGAGUUAGTT against Pcnt, the z-score is inactive: 0.649. Regarding GCAUCAUCUGAUCUGCACGTT against Nkx2-9, the z-score is inactive: -0.969. As to GGAGAAAGAGAUCACCAUCTT against Slc8a2, the z-score is inactive: -0.0135. For GGCCUUUCACAAAUUAGCCTT against Dnajb9, the z-score was inactive: 0.864.

For GGUGUUCUUACCUUUUGACTT against Il9r, the z-score was inactive: -0.128. To GGUGCUGGACGAAAUUGUATT against Arhgdig belongs inactive: 1.36; to GGAGAGUGCUGAUGUUCUGTT against Rhox6, active: 2.26. For GGGAGGCAUAGUCAAAUUGTT against Ccdc87, the z-score is inactive: -0.62.

Consider GGCUAAUGCUCCUUCAUGUTT against Myo18a, for which the z-score was inactive: -0.439. Consider GGUAUUCGUGGUGAUGGAGTT against Prkd2, for which the z-score is inactive: 1.35. Regarding CCAGCAAAGACAAGUCUCCTT against Hoxb9, the z-score is inactive: 1.79.

For the sequence GGACUGAGAAAAUCUUCCGTT against Hpca, the z-score was inactive: -0.385.

For the sequence GGAAUGUAACUGAAAGACUTT against Myo1c, the z-score was inactive: 0.486. With GGGAUCCACAAAUAAAAGATT against Klk4, the z-score is inactive: 0.182. For the sequence GGUAAAUACUGUUUCUUAGTT against Lsm14a, the z-score is inactive: 0.823.

As to GCACUAGAAGUGUCUUUUCTT against Cdhr1, the z-score was active: 2.17. To GGGAAAUGCUGAUUCUCGATT against Spink12 belongs inactive: 0.614; to GGUUGACUUAAAUGUCAGGTT against Rxrb, inactive: -0.419. For the sequence GCCACAUUGCUUAUGGCUGTT against Yipf7, the z-score was inactive: 1.46. For CCUGGAAUGUAUUUGUUAUTT against Nkain2, the z-score was inactive: 0.0256. With GGAACGAGAAGAAGAAGAATT against Acin1, the z-score is inactive: 0.169.

GGACCUGCCCAAAUCUGAUTT against Fbxo40: the z-score is inactive: 0.307. As for GGCCAUCGAUUUUGAAUACTT against Isy1, the z-score is inactive: -0.284.

For GGUAAAGCUGAAGACAAGGTT against Rps2, the z-score was inactive: 0.745. For the sequence AACAACUGAGCAAAUCCACTT against Alyref, the z-score is inactive: -0.569. Take CGGGUAUCAUCGAUUAUGGTT against Tnfaip6: the z-score is inactive: -0.356. In the case of GGCAUUUUGAGACUCUACUTT against Crygb, the z-score was inactive: 1.05.
